Results deposited as PubChem BioAssay AID1259405 (NCATS, 2018)
Shown is one part, drawn at random, of about 50,000 deposited reagents. About 4,000 of all reagents (8%) were called active. 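Mouse siRNA library applied to hamster cells; one well for each siRNA.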

Test: 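Mouse-designed siRNAs used to find CHO productivity engineering targets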 (primary screen)
Cells: Chinese hamster CHO-K1 ovary cells with stable secreted eGFP expression
Reagent: single siRNA against mouse genes, 0.8 pmol siRNA per well (2 µl of 400 nM stock)
Duration: 3 days
Read-out: 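Percent of the per-plate non-targeting control median for intracellular GFP per well by laser scanning cytometry and for cell viability by ATP luminescence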
Scale: GFP, % of control: higher = more GFP per well, higher productivity; viability (ATP), % of control: higher = more viable cells (more ATP)
Call rule: 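Called active when intracellular GFP, relative to negative control, is at or above 120%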

no.	gene knocked down	PubChem SID	GFP, % of control	viability (ATP), % of control	activity call
1	Sprr2g (small proline-rich protein 2G)	SID363556489	83.3	89.8	inactive
2	Sprr2g (small proline-rich protein 2G)	SID363586939	159	149	active
3	Sprr2g (small proline-rich protein 2G)	SID363589047	115	135	inactive
4	Ripk1 (receptor (TNFRSF)-interacting serine-threonine kinase 1)	SID363570792	86.8	60.3	inactive
5	Ywhae	SID363573156	67	78.3	inactive
6	Ywhae	SID363577732	33.3	36.1	inactive
7	Ywhae	SID363581252	83.4	61	inactive
8	Myl6b (myosin, light polypeptide 6B)	SID363572219	109	79.6	inactive
9	Myl6b (myosin, light polypeptide 6B)	SID363573979	89	80.7	inactive
10	Hsd3b4	SID363556644	63.5	45	inactive
11	Hsd3b4	SID363563548	96.3	74.4	inactive
12	Hsd3b4	SID363587094	67.3	78	inactive
13	Sdha	SID363574959	42.1	48.3	inactive
14	Sdha	SID363580591	64.3	48.9	inactive
15	Sdha	SID363582703	80.8	95.8	inactive
16	Slc22a1	SID363574774	74.3	84.4	inactive
17	Slc22a1	SID363575830	104	83.9	inactive
18	Slc22a1	SID363580406	69.7	95.3	inactive
19	Poll (polymerase (DNA directed), lambda)	SID363568996	86.9	100	inactive
20	Poll (polymerase (DNA directed), lambda)	SID363583428	94.7	66.5	inactive

Already shown: an excerpt of the list.
no.	gene knocked down	PubChem SID	GFP, % of control	viability (ATP), % of control	activity call
8	Myl6b (myosin, light polypeptide 6B)	SID363572219	109	79.6	inactive
9	Myl6b (myosin, light polypeptide 6B)	SID363573979	89	80.7	inactive

The results go on.
no.	gene knocked down	PubChem SID	GFP, % of control	viability (ATP), % of control	activity call
21	Rtp4 (receptor transporter protein 4)	SID363552356	86.9	74.9	inactive
22	Rtp4 (receptor transporter protein 4)	SID363585492	70.2	95.5	inactive
23	Rtp4 (receptor transporter protein 4)	SID363585843	98.8	126	inactive
24	Cpne6 (copine VI)	SID363550091	91.4	106	inactive
25	Cpne6 (copine VI)	SID363564600	87.5	59	inactive
26	Cpne6 (copine VI)	SID363588145	160	84.1	active
27	Coa7 (cytochrome c oxidase assembly factor 7)	SID363543600	68.6	51.1	inactive
28	Coa7 (cytochrome c oxidase assembly factor 7)	SID363553093	112	71.4	inactive
29	Coa7 (cytochrome c oxidase assembly factor 7)	SID363558941	90.7	120	inactive
30	Dync1li1 (dynein cytoplasmic 1 light intermediate chain 1)	SID363572403	87.8	98.6	inactive
31	Dync1li1 (dynein cytoplasmic 1 light intermediate chain 1)	SID363574163	79.7	104	inactive
32	Insig2 (insulin induced gene 2)	SID363540377	71.2	79.7	inactive
33	Insig2 (insulin induced gene 2)	SID363542129	134	58.2	active
34	Insig2 (insulin induced gene 2)	SID363567045	46.6	49.3	inactive
35	Ptpn20 (protein tyrosine phosphatase, non-receptor type 20)	SID363547755	79.4	50.2	inactive
36	Ptpn20 (protein tyrosine phosphatase, non-receptor type 20)	SID363558524	99	70.8	inactive
37	Ptpn20 (protein tyrosine phosphatase, non-receptor type 20)	SID363560282	71.3	90.6	inactive
38	Nat10 (N-acetyltransferase 10)	SID363546678	119	91.1	inactive
39	Nat10 (N-acetyltransferase 10)	SID363548434	110	137	inactive
40	Nat10 (N-acetyltransferase 10)	SID363560612	142	91.7	active
41	Or2w6 (olfactory receptor family 2 subfamily W member 6)	SID363554432	113	85.4	inactive
42	Or2w6 (olfactory receptor family 2 subfamily W member 6)	SID363567879	26.2	30.5	inactive
43	Or2w6 (olfactory receptor family 2 subfamily W member 6)	SID363585236	37.9	78.8	inactive
44	Ly6g5c (lymphocyte antigen 6 family member G5C)	SID363562247	116	74.7	inactive
45	Ly6g5c (lymphocyte antigen 6 family member G5C)	SID363567385	80	35.5	inactive
46	Ly6g5c (lymphocyte antigen 6 family member G5C)	SID363584742	83.3	49.9	inactive
47	Rybp (RING1 and YY1 binding protein)	SID363584486	90.1	92	inactive
48	Rybp (RING1 and YY1 binding protein)	SID363589516	113	66.6	inactive
49	Fam229b (family with sequence similarity 229, member B)	SID363543549	179	82.7	active
50	Fam229b (family with sequence similarity 229, member B)	SID363553042	47.8	29.9	inactive
51	Fam229b (family with sequence similarity 229, member B)	SID363558890	71.1	93.9	inactive
52	Fam229b (family with sequence similarity 229, member B)	SID363589700	117	94.7	inactive
53	Fam229b (family with sequence similarity 229, member B)	SID363589702	114	104	inactive
54	Fam229b (family with sequence similarity 229, member B)	SID363589788	98.4	114	inactive
55	Dnah8 (dynein, axonemal, heavy chain 8)	SID363572340	60.8	68.7	inactive
56	Dnah8 (dynein, axonemal, heavy chain 8)	SID363574100	73.1	71.1	inactive
57	Angptl3 (angiopoietin-like 3)	SID363572202	95.4	84.8	inactive
58	Angptl3 (angiopoietin-like 3)	SID363573962	105	112	inactive
